PubChem BioAssay AID1259254, NCATS | 2017

- Purpose: 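Genome-wide screen for genes that prevent DNA re-replication in cancer cells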 (primary screen)
- System: human HCT116 colorectal cancer cells
- Reagent: single siRNA against human genes
- Time to read-out: 3 days
- Measured: 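Imaged Hoechst DNA stain sorts each cell into a cycle phase by DNA amount; per plate, G2 fraction set to 0% for non-targeting and 100% for GMNN siRNA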
- Reading the numbers: G2 robust z-score and G2 cells, % of GMNN control: higher = more G2 cells, more excess DNA replication
- Hit rule: 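An siRNA counts as active if its G2 robust z-score lies at least 5 MADs above the screen median; here such calls match roughly 38% of GMNN control or more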
The deposit covers about 59,000 reagents; shown is a part drawn at random. About 1,550 of them (2.6%) were called active. 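G2 share is only a proxy for re-replication; each gene was hit by three separate siRNAs, and active genes were retested.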 Reagents against one gene are numbered here. Not all columns of the deposit are shown. The record does not give: the amount of reagent.

NDUFS7 (NADH:ubiquinone oxidoreductase core subunit S7) #1 | G2 robust z-score = -0.507; G2 cells, % of GMNN control = -0.597; Call = inactive
NDUFS7 (NADH:ubiquinone oxidoreductase core subunit S7) #2 | G2 robust z-score = 0.0955; G2 cells, % of GMNN control = 3.64; Call = inactive
NDUFS7 (NADH:ubiquinone oxidoreductase core subunit S7) #3 | G2 robust z-score = 2.19; G2 cells, % of GMNN control = 18.4; Call = inactive
IRF9 (interferon regulatory factor 9) #1 | G2 robust z-score = -0.181; G2 cells, % of GMNN control = 1.7; Call = inactive
IRF9 (interferon regulatory factor 9) #2 | G2 robust z-score = -0.14; G2 cells, % of GMNN control = 1.98; Call = inactive
IRF9 (interferon regulatory factor 9) #3 | G2 robust z-score = -0.875; G2 cells, % of GMNN control = -3.19; Call = inactive
DDX17 (DEAD-box helicase 17) #1 | G2 robust z-score = -0.797; G2 cells, % of GMNN control = -2.64; Call = inactive
DDX17 (DEAD-box helicase 17) #2 | G2 robust z-score = -1.24; G2 cells, % of GMNN control = -5.78; Call = inactive
DDX17 (DEAD-box helicase 17) #3 | G2 robust z-score = -0.901; G2 cells, % of GMNN control = -3.37; Call = inactive
MAD2L1 (mitotic arrest deficient 2 like 1) #1 | G2 robust z-score = 5.09; G2 cells, % of GMNN control = 38.7; Call = active
MAD2L1 (mitotic arrest deficient 2 like 1) #2 | G2 robust z-score = 4.35; G2 cells, % of GMNN control = 33.6; Call = inactive
MAD2L1 (mitotic arrest deficient 2 like 1) #3 | G2 robust z-score = 1.9; G2 cells, % of GMNN control = 16.3; Call = inactive

Entries above marked active, once more:
MAD2L1 (mitotic arrest deficient 2 like 1) #1 | G2 robust z-score = 5.09; G2 cells, % of GMNN control = 38.7; Call = active
